Consider one substance from patent publication US20230243836A1.

Chains of the proteins cited; added tags and fusions are not shown. Lines headed by an entry give the natural chain unless they say otherwise; changes in a name come on top.
UniProt Q9H7M9: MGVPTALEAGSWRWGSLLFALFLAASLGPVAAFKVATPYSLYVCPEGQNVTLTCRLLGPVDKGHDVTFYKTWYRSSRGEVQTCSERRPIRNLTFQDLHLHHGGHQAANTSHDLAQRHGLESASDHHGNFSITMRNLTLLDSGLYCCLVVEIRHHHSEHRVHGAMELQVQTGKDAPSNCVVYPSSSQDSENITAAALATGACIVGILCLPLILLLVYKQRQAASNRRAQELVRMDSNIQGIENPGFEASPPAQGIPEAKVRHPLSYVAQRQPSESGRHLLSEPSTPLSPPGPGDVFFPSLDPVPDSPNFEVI

These are yes or no findings as the source states them, for the method shown. Binding seen in cells or lysates may run through a third protein. Some binding calls cover weakened binding; strength is not graded here.

Assay [1] concerns the target T1, P-selectin glycoprotein ligand 1 (PSGL-1) expressed on human cells (human) (UniProt Q14242).
T1 sequence: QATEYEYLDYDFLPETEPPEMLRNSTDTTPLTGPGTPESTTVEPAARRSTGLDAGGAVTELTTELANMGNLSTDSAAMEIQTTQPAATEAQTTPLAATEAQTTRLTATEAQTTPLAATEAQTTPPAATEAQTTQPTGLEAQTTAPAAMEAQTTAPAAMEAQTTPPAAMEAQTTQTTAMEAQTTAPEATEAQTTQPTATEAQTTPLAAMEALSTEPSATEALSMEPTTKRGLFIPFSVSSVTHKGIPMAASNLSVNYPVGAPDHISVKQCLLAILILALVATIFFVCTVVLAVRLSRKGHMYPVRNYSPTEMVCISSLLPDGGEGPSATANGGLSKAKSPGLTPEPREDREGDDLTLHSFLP
Kind of assay: co-immunoprecipitation from PBMC lysate, anti-PSGL-1 Western blot. A general note: Immunoblotting shows a protein as a band on a membrane.

Assay [2] addresses T1, P-selectin glycoprotein ligand 1 (PSGL-1) expressed on human cells (human). The assay can be described thus: co-immunoprecipitation with anti-VISTA antibody from untreated PBMC lysate, anti-PSGL-1 Western blot.

For the substance “VISTA (V-Domain Ig Suppressor of T Cell Activation) expressed on human cells (from UniProt Q9H7M9 33-311) (ligand)”, the binding result in assay [1] and in assay [2] was “binds” in each case.
